Test in all cases: co-IP; anti-Flag M2 affinity gel with 1 mg lysate of transfected HEK293T cells in RIPA buffer (0.1% SDS, 1% Triton X-100, 1% sodium deoxycholate, 150 mM NaCl, 10 mM Tris pH 7.5, 1 mM EDTA), overnight at 4°C, three washes, Western blot; one panel (Fig 2G) with or without RNase A
A general note: A western blot detects proteins with antibodies after separation by electrophoresis.

For assay [1], the target named is T1, MxB M574D/Y651D, Flag-tagged (human) (UniProt P20592).
T1 sequence: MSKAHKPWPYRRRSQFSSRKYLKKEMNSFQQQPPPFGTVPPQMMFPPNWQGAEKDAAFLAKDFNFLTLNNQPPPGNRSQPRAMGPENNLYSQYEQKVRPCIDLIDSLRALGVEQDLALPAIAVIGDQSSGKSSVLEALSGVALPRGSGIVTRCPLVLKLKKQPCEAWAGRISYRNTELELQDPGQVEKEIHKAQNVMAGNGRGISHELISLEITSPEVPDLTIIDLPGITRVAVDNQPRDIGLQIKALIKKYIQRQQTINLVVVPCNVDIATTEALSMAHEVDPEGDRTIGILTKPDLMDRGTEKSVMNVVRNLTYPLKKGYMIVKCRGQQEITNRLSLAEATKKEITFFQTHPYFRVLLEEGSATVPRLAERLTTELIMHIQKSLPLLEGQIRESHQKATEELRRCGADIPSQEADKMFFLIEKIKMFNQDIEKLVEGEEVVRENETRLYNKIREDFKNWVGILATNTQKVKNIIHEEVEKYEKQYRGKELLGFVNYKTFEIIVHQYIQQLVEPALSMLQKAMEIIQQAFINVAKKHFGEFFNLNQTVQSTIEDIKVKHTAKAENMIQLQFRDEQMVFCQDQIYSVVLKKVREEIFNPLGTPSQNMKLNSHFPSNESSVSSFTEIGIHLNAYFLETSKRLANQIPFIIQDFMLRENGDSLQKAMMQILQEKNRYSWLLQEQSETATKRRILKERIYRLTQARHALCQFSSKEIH

Assay [2] has as its target T2, MxB K131A, Flag-tagged (human) (UniProt P20592).
T2 sequence: T1 sequence with K131A, D574M, D651Y

The target in assay [3] is T3, MxB R449D/F495D, Flag-tagged (human) (UniProt P20592).
T3 sequence: T1 sequence with R449D, F495D, D574M, D651Y

For assay [4], the target named is T4, myxovirus resistance protein B (MxB), Flag-tagged (human) (UniProt P20592).
T4 sequence: T1 sequence with D574M, D651Y

Positions count from the first letter of the chain named. These are yes or no findings as the source states them, for the method shown. In cells and extracts the contact can be indirect. A result given as binding can be weak or reduced; the word gives no strength. Tags and fused reporters may be left off the sequences shown.

“LINE-1 ORF1p expressed from the CMV-L1-neo^RT reporter DNA (human)”: the binding entry in assay [1], in assay [2], in assay [3] and in assay [4] was “binds” throughout.
For the substance LINE-1 ORF1p, Myc-tagged (human), in assay [4], the binding entry is “binds”.
On the same count and under the same terms, as for “endogenous LINE-1 ORF1p (human (endogenous in HEK293T))”, the entry is “binds”.

The record behind these values is publication PMC8849481.
